Test results from PubChem BioAssay AID504834 (National Center for Advancing Translational Sciences (NCATS), 2011).
Among all 320,000 compounds or so, about 22,000 (6.9%) were called active. Inconclusive means that the source gave no clear call. Such entries were picked first, then a sample of the others. The call rests on the fitted dose curve; in most records, active means well fitted inhibition curve with a large enough effect; inconclusive means small, poorly fitted or top-dose-only effect, or another doubt; inactive means no such curve, though single readings can be large or run the other way. Potencies beside an inconclusive call are fits to weak or partial responses and may not hold up.
On the % scale 0 is the no-effect control and ±100 the full control effect; potency means the concentration at half of the fitted maximal effect.

Experiment: Primary qHTS for delayed death inhibitors of the malarial parasite plastid, 96 hour incubation
Conditions: P. falciparum luciferase reporter growth; series mostly up to 28.7 µM; activity change, negative = inhibition: at the top concentration
Outline: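 Erythrocytes infected with luciferase-expressing P. falciparum were dispensed at 2% hematocrit and 0.05% parasitemia (final), then incubated with compounds 96 hours at 37 C in 5% CO2. Luminescence after detection reagent addition reported growth.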
For CCNC(=O)N1CCCC(C(=O)c2ccc(OC)c(OC)c2)C1 (stereo not given), the Potency was inconclusive: 11.7 µM [inhibitor, partial curve, poor fit].
With CCOC(=O)c1ccc(-n2c(C)nc3c(cnn3-c3ccc(Cl)cc3)c2=O)cc1 the “activity change, negative = inhibition” value was inactive: 34.5%.
In the case of Cc1ccc(-c2noc(/C=C/c3ccccc3)n2)cc1, the “activity change, negative = inhibition” value is reported as inactive: 178%.
With O=c1c2c3c(sc2n(CCN2CCCCC2)c(=O)n1Cc1ccco1)CCCCC3 the Potency was active: 2.62 µM.
With CCn1c(SCC(=O)Nc2ccccc2Br)nnc1-c1cnccn1 the Potency was inconclusive: 18.5 µM [inhibitor, single point].
With CC12C=CC3(CN(Cc4ccccc4)C(=O)C3C1C(=O)NCc1ccco1)O2 (stereo not given) the Potency was inconclusive: 11.7 µM [inhibitor, partial curve, poor fit].
In the case of Cc1cc(C)n2nc(C(=O)OCC(=O)N3CC(C)CC(C)C3)nc2n1 (stereo not given), the “activity change, negative = inhibition” value is reported as inactive: 29.6%.
For CCOC(=O)/C(C#N)=C/c1c(N2CCN(Cc3ccc4c(c3)OCO4)CC2)nc2c(C)cccn2c1=O, the Potency was inconclusive: 13.1 µM [inhibitor, partial curve, poor fit].
With Fc1ccc(CNc2nc(-c3cccnc3)nc3ccccc23)cc1 the Potency was inconclusive: 0.329 µM [inhibitor, partial curve, poor fit].
For O=C(NCCc1ccccc1)C1CCCN(C(=O)NC2CCCCC2)C1 (stereo not given), the Potency was inconclusive: 10.4 µM [inhibitor, single point].
With Cc1n[nH]c(C)c1S(=O)(=O)N1CCCC(C(=O)NC2CCCCC2)C1 (stereo not given) the Potency was inconclusive: 13.1 µM [inhibitor, single point].
With N#Cc1nc(-c2ccc(OCc3ccccc3)cc2)oc1N1CCC(C(N)=O)CC1 the Potency was inconclusive: 2.62 µM [inhibitor, full curve, poor fit].
With CNC(=O)C(=O)NCCCN1CCOCC1 the Potency was inconclusive: 18.5 µM [inhibitor, single point].
In the case of Cc1nc([N+](=O)[O-])c(N2CCN(C)CC2)n1Cc1ccccc1, the Potency is reported as inconclusive: 0.522 µM [inhibitor, partial curve, poor fit].
For Cc1[nH]c2ccc(C(=O)OC(C)C(=O)N(C)c3ccccc3)cc2c1C (stereo not given), the Potency was inconclusive: 13.1 µM [inhibitor, single point].
In the case of Clc1ccc(-c2cc3ccccc3nc2N2CCCC2)cc1, the Potency is reported as inconclusive: 11.7 µM [inhibitor, single point].
For Cc1cccc(NC(=O)c2ccc(-n3cccn3)c([N+](=O)[O-])c2)c1, the Potency was inconclusive: 4.15 µM [inhibitor, partial curve, poor fit].
For O=C(NC(NC(=S)Nc1c(Cl)cc(Cl)cc1Cl)C(Cl)(Cl)Cl)OCc1ccccc1 (stereo not given), the “activity change, negative = inhibition” value was inactive: -28.3%.
In the case of N#Cc1nc(-c2cccc3ccccc23)oc1NCCN1CCOCC1, the “activity change, negative = inhibition” value is reported as inactive: 22.9%.
With CCOc1cc(C(=S)N2CCCC2)ccc1OCc1ccccc1 the Potency was inconclusive: 18.5 µM [inhibitor, single point].
For N=C(N)N1CCN(Cc2ccccc2)CC1, the Potency was inconclusive: 10.4 µM [inhibitor, single point].
For COc1ccc(OC)c(-n2c(=S)[nH]c3cc(C(=O)N(C)Cc4ccccc4)ccc3c2=O)c1, the Potency was active: 9.28 µM.
With CCOc1ccccc1N1CCN(C(=O)c2cccs2)CC1 the Potency was inconclusive: 5.86 µM [inhibitor, partial curve].
For COc1ccc(CCNC(=O)c2ccc(NC(=O)CC3SC(N4CCCC4)=NC3=O)cc2)cc1 (stereo not given), the Potency was inconclusive: 3.7 µM [inhibitor, single point].
In the case of CC(NC(=S)Nc1ccc(OC(F)F)cc1)c1ccc(F)cc1 (stereo not given), the Potency is reported as inconclusive: 18.5 µM [inhibitor, single point].
For Cc1csc(NS(=O)(=O)c2cccc([N+](=O)[O-])c2)n1, the Potency was inconclusive: 8.28 µM [inhibitor, single point].
With CCOc1ccc(OCCSc2nc3ccccc3n2CC(=O)O)cc1 the Potency was inconclusive: 13.1 µM [inhibitor, single point].
In the case of COc1ccc(Br)cc1CNC(=O)CCN1C(=O)COc2ccccc21, the “activity change, negative = inhibition” value is reported as inactive: -4.56%.
In the case of Cc1occc1-c1nnc(SCC(=O)N2CCCc3ccccc32)n1Cc1ccco1, the Potency is reported as inconclusive: 18.5 µM [inhibitor, single point].
With O=C(N1CCCCCC1)n1c(Cc2ccccc2)nc2ccccc21 the Potency was inconclusive: 18.5 µM [inhibitor, single point].
In the case of COc1ccc2c(c1)c(C(=O)O)c(C)n2-c1ccc(Cl)cc1, the “activity change, negative = inhibition” value is reported as inactive: 35.2%.
With Cc1cc(C)cc(NC(=O)CSc2nnc(-c3ccccc3)n2N)c1 the Potency was inconclusive: 14.7 µM [inhibitor, single point].
With CN(C)CCNC(=O)Cn1c(=O)c2cccn2c2ccc(F)cc21 the Potency was inconclusive: 13.1 µM [inhibitor, partial curve].
For Cn1c(SCc2c(Cl)cccc2Cl)nnc1-c1cccs1, the Potency was inconclusive: 10.4 µM [inhibitor, single point].
In the case of CCOc1ccc2c(c1)OC(c1ccc(OC)cc1)(C(F)(F)F)NC2=O (stereo not given), the Potency is reported as inconclusive: 11.7 µM [inhibitor, partial curve, poor fit].
In the case of CCc1c(C)nc2ncnn2c1Nc1ccc(C)cc1, the Potency is reported as inconclusive: 0.262 µM [inhibitor, full curve].
With O=C(NCCCc1nc2ccccc2[nH]1)c1ccc(F)cc1 the Potency was active: 10.4 µM.
For Cc1cccc(C)c1OCCNC(=O)OCc1ccccc1, the Potency was inconclusive: 18.5 µM [inhibitor, single point].
With Oc1ccc(Cl)cc1C1=NNC(c2ccc(Cl)cc2)C1 (stereo not given) the Potency was inconclusive: 9.28 µM [inhibitor, partial curve, poor fit].
In the case of Cc1c(Cl)cccc1NC(=O)CCC(=O)NNC(=O)c1ccccc1, the “activity change, negative = inhibition” value is reported as inactive: 25.5%.
In the case of Cc1ccc(C(=O)N2CCN=C2SCc2ccc([N+](=O)[O-])cc2)cc1C, the “activity change, negative = inhibition” value is reported as inactive: 0%.
For COc1cccc(N2C(=NC(=O)C3CCCCC3)SC3CS(=O)(=O)CC32)c1 (stereo not given), the “activity change, negative = inhibition” value was inactive: 33.9%.
With Cc1nn(C)c(C(=O)NNC(=S)NCC(C)C)c1Cl the Potency was inconclusive: 5.86 µM [inhibitor, partial curve, poor fit].
For CCOCCCNC(=O)CCc1nnc2n(CCC(C)C)c(=O)c3ccccc3n12, the Potency was inconclusive: 1.31 µM [inhibitor, full curve].
In the case of CC(C)C(=O)Nc1cccc(S(=O)(=O)c2cccc(NC(=O)C(C)C)c2)c1, the Potency is reported as inconclusive: 18.5 µM [inhibitor, single point].
With O=C(Nc1ccc(Nc2ccccc2)cc1)c1cccc(F)c1 the Potency was inconclusive: 18.5 µM [inhibitor, single point].
With COc1ccc(C(=O)Nc2cc(Cl)ccc2N2CCOCC2)cc1S(=O)(=O)N1CCOCC1 the Potency was inconclusive: 7.38 µM [inhibitor, partial curve, poor fit].
With O=C(NNC(=O)C1C2C=CC(C2)C1C(=O)O)c1ccccc1 (stereo not given) the “activity change, negative = inhibition” value was inactive: -16.3%.
With CCC(=O)Nc1ccc(C(=O)COC(=O)Cc2ccsc2)cc1 the Potency was inconclusive: 9.28 µM [inhibitor, partial curve, poor fit].
For CC(C)(C)c1ccc(-n2ncc3c2CCCC3NC(=O)CN2CCCC2=O)cc1 (stereo not given), the Potency was active: 13.1 µM.
In the case of COC(=O)[C@H](C)NC(=O)Nc1cccc(C(F)(F)F)c1, the “activity change, negative = inhibition” value is reported as inactive: -10.4%.
With CCN/C=C(\C#N)S(=O)(=O)c1ccc(Br)cc1 the “activity change, negative = inhibition” value was inactive: 34.4%.
For COC(=O)CSC1=C(C#N)C(c2ccc(C(C)C)cc2)CC(=O)N1 (stereo not given), the “activity change, negative = inhibition” value was inactive: -23.9%.
In the case of COc1ccc(-c2cc(C(=O)N3CCCC(C(F)(F)F)C3)c3ccccc3n2)cc1 (stereo not given), the “activity change, negative = inhibition” value is reported as inactive: -107%.
In the case of O=C(CCN1C(=O)C2C3C=CC(C4CC34)C2C1=O)Oc1cccc2cccnc12 (stereo not given), the “activity change, negative = inhibition” value is reported as inactive: -35%.
In the case of FC(F)(F)c1cccc(NCc2cn3cccnc3n2)c1, the Potency is reported as inconclusive: 8.28 µM [inhibitor, partial curve, poor fit].
With Cc1ccc(NC(=S)N(Cc2ccc(Cl)cc2)Cc2ccc(C(=O)O)cc2)cc1Cl the “activity change, negative = inhibition” value was inactive: -6.75%.
For O=C(CSc1nc2nc(-c3cccs3)cc(C(F)(F)F)c2c(=O)[nH]1)NCc1ccco1, the Potency was inconclusive: 14.7 µM [inhibitor, single point].
In the case of Cc1ccc(OCC(=O)N2CCN(S(=O)(=O)c3ccc(Cl)s3)CC2)cc1C, the Potency is reported as active: 9.28 µM.
In the case of N=c1c(C(=O)NCc2ccco2)cc2c(=O)n3ccccc3nc2n1Cc1ccc(Cl)cc1, the Potency is reported as active: 2.33 µM.
For CC(C)(C)C1(C)OC(C(=O)NC2CCCCC2)C(C(=O)NC2CCCCC2)O1 (stereo not given), the Potency was inconclusive: 2.08 µM [inhibitor, partial curve, poor fit].
For COc1cc(C(=O)OCCN2CCCCC2)ccc1O, the “activity change, negative = inhibition” value was inactive: -35.4%.
With Cc1cc(C)n(-c2cccc(CN3CCC(CO)(Cc4ccccc4)CC3)c2)n1 the Potency was inconclusive: 13.1 µM [inhibitor, partial curve, poor fit].
For O=S(=O)(c1ccc(F)cc1)N1CC2CCCN2c2ccc(C(F)(F)F)cc21 (stereo not given), the Potency was inconclusive: 11.7 µM [inhibitor, partial curve, poor fit].
With Cc1cc(=O)[nH]c(Nc2cccc(Br)c2)n1 the Potency was inconclusive: 4.15 µM [inhibitor, full curve, poor fit].
For C[C@H]1CCC(=O)N([C@H](CN=[N+]=[N-])Cc2ccccc2)CC1, the Potency was inconclusive: 18.5 µM [inhibitor, single point].
In the case of O=C1C2C3CCC(C3)C2C(=O)N1c1ccc(OS(=O)(=O)c2ccccc2)cc1 (stereo not given), the “activity change, negative = inhibition” value is reported as inactive: 1.84%.
In the case of COc1cc(OC)c(C(=O)Nc2cccnc2)cc1OC, the Potency is reported as inconclusive: 11.7 µM [inhibitor, single point].
In the case of COc1cc(CNCCCO)ccc1OCC(=O)NC(C)(C)C, the Potency is reported as inconclusive: 0.0586 µM [inhibitor, full curve].
For CCOC(=O)N1CCN(S(=O)(=O)N2CCCC(C(=O)NC(C)c3ccccc3)C2)CC1 (stereo not given), the Potency was inconclusive: 5.86 µM [inhibitor, partial curve, poor fit].
